{"sequences": {"note": "Chains of the proteins cited; added tags and fusions are not shown. Lines headed by an entry give the natural chain unless they say otherwise; changes in a name come on top.", "UniProt P55075": "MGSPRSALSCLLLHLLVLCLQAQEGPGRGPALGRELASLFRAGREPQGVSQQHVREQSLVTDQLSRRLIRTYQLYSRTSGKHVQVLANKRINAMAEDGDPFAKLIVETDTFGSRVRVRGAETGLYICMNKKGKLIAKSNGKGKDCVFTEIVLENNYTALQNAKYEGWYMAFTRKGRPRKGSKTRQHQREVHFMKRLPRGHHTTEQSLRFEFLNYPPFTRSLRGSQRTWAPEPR"}, "source": "patent US20090196876A1", "molecular_target": "T1, UNQ1900-ECD-Fc (human) (UniProt Q6UXG8)", "T1 sequence": "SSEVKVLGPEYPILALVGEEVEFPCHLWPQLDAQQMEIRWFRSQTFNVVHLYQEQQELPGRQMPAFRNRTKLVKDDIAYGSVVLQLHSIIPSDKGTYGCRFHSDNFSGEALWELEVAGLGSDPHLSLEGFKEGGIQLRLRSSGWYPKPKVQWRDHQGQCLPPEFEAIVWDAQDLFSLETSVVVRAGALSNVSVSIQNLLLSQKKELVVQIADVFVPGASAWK", "test": "BiaCore; UNQ1900-ECD-Fc coated on chip, 275 proteins tested as analytes", "note": "Results are given in words; binding and its absence hold for the method and conditions named. Binding can be weak; no strength is given. Where a sequence is shown, tags or fusion partners need not be part of it.", "data": [{"substance": "FGF8 (from UniProt P55075) (ligand)", "values": [{"measurement": "binding", "value": "binds"}]}]}
